PubChem BioAssay AID652243 – Drosophila RNAi Screening Center – 2013
In all, the deposit lists about 24,000 reagents; shown is a random part of those with a known target gene and a result. Over the whole deposit, 246 (1%) are marked active. 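Plates not normalised; calls are printed but the firefly/Renilla ratio behind them is not deposited; fold cut for lowering reported inconsistently.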 The raw values are shown without normalisation. Not stated in the record: the amount of reagent.

- Assay: 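Fly regulators of androgen-dependent reporter output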 (primary screen)
- System: Drosophila S2R+ cells
- Knock-down reagent: long dsRNA against Drosophila genes
- Timing: 72 h (48 h, then 24 h hormone)
- Conditions: synthetic androgen R1881 at 10 nM for 24 h
- Measured: 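Per-well raw luminescence of the androgen-driven firefly reporter and of the Renilla control, two replicates each, without normalisation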
- Reading the numbers: firefly reporter light: higher = more light from androgen-responsive reporter; Renilla control light: higher = more constitutive control signal (cell number, transfection)
- Hit rule: 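Hit when the log firefly-to-Renilla ratio dropped or increased by a fixed fold versus the mean of GFP or LacZ controls across duplicate plates; lowering cut given as 1.5 and as 3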
- Calls: active = hit: reporter lowered or raised; inactive = no hit

What is on record for alphaSnap [DRSC11285]?
firefly reporter light, replicate 1: 52191; firefly reporter light, replicate 2: 75072; Renilla control light, replicate 1: 4.23e5; Renilla control light, replicate 2: 3.62e5; Call: inactive

What did the screen give for alphaSnap [DRSC29788]?
firefly reporter light, replicate 1: 5.41e5; firefly reporter light, replicate 2: 4.32e5; Renilla control light, replicate 1: 1.59e6; Renilla control light, replicate 2: 1.53e6; Call: inactive

For CG31688 [DRSC02117], how do the results read?
firefly reporter light, replicate 1: 30402; firefly reporter light, replicate 2: 26895; Renilla control light, replicate 1: 7.54e5; Renilla control light, replicate 2: 5.77e5; Call: inactive

What did the screen give for CG31688 [DRSC02682]?
firefly reporter light, replicate 1: 1.13e5; firefly reporter light, replicate 2: 1.94e5; Renilla control light, replicate 1: 1.50e6; Renilla control light, replicate 2: 1.85e6; Call: inactive

How did the screen score CG31688 [DRSC25211]?
firefly reporter light, replicate 1: 6.01e5; firefly reporter light, replicate 2: 7.30e5; Renilla control light, replicate 1: 5.52e5; Renilla control light, replicate 2: 6.82e5; Call: inactive

For CG31688 [DRSC26711], what does the deposit list?
firefly reporter light, replicate 1: 2.98e5; firefly reporter light, replicate 2: 3.03e5; Renilla control light, replicate 1: 8.47e5; Renilla control light, replicate 2: 7.94e5; Call: inactive

For blp [DRSC15757], what was measured?
firefly reporter light, replicate 1: 1.36e5; firefly reporter light, replicate 2: 1.62e5; Renilla control light, replicate 1: 2.51e6; Renilla control light, replicate 2: 2.96e6; Call: inactive

What did the screen give for blp [DRSC28887]?
firefly reporter light, replicate 1: 4.21e5; firefly reporter light, replicate 2: 3.41e5; Renilla control light, replicate 1: 9.32e5; Renilla control light, replicate 2: 1.15e6; Call: inactive

What did the screen give for Dcr-1 [DRSC15646]?
firefly reporter light, replicate 1: 74276; firefly reporter light, replicate 2: 73935; Renilla control light, replicate 1: 7.21e5; Renilla control light, replicate 2: 8.59e5; Call: inactive

For Dcr-1 [DRSC27421], what was measured?
firefly reporter light, replicate 1: 2.75e5; firefly reporter light, replicate 2: 3.08e5; Renilla control light, replicate 1: 6.48e5; Renilla control light, replicate 2: 6.93e5; Call: inactive

What did the screen give for flap [DRSC03918]?
firefly reporter light, replicate 1: 1.34e5; firefly reporter light, replicate 2: 1.95e5; Renilla control light, replicate 1: 3.18e5; Renilla control light, replicate 2: 6.30e5; Call: inactive

With flap [DRSC04087], what was measured?
firefly reporter light, replicate 1: 9.49e5; firefly reporter light, replicate 2: 9.44e5; Renilla control light, replicate 1: 1.80e6; Renilla control light, replicate 2: 1.52e6; Call: inactive

What is on record for Nlg3 [DRSC12524]?
firefly reporter light, replicate 1: 80566; firefly reporter light, replicate 2: 1.70e5; Renilla control light, replicate 1: 3.16e6; Renilla control light, replicate 2: 2.93e6; Call: inactive

With Nlg3 [DRSC12540], how do the results read?
firefly reporter light, replicate 1: 85104; firefly reporter light, replicate 2: 1.51e5; Renilla control light, replicate 1: 2.44e6; Renilla control light, replicate 2: 1.74e6; Call: inactive

What did the screen give for Nlg3 [DRSC12574]?
firefly reporter light, replicate 1: 57362; firefly reporter light, replicate 2: 68641; Renilla control light, replicate 1: 1.77e6; Renilla control light, replicate 2: 1.13e6; Call: inactive

Which result is listed for Nlg3 [DRSC25678]?
firefly reporter light, replicate 1: 9.35e5; firefly reporter light, replicate 2: 9.56e5; Renilla control light, replicate 1: 1.11e6; Renilla control light, replicate 2: 1.20e6; Call: inactive

Which result is listed for vito [DRSC21781]?
firefly reporter light, replicate 1: 5.42e5; firefly reporter light, replicate 2: 4.44e5; Renilla control light, replicate 1: 8.63e5; Renilla control light, replicate 2: 7.81e5; Call: inactive

Which result is listed for vito [DRSC24852]?
firefly reporter light, replicate 1: 7.47e5; firefly reporter light, replicate 2: 5.80e5; Renilla control light, replicate 1: 7.79e5; Renilla control light, replicate 2: 6.49e5; Call: inactive

What did the screen give for Wnt10 [DRSC02797]?
firefly reporter light, replicate 1: 1.77e5; firefly reporter light, replicate 2: 1.61e5; Renilla control light, replicate 1: 1.65e6; Renilla control light, replicate 2: 1.43e6; Call: inactive

With Wnt10 [DRSC29973], what does the deposit list?
firefly reporter light, replicate 1: 4.35e5; firefly reporter light, replicate 2: 3.86e5; Renilla control light, replicate 1: 1.19e6; Renilla control light, replicate 2: 1.21e6; Call: inactive

For tow [DRSC23125], how do the results read?
firefly reporter light, replicate 1: 7.38e5; firefly reporter light, replicate 2: 9.14e5; Renilla control light, replicate 1: 1.14e6; Renilla control light, replicate 2: 1.75e6; Call: inactive

With tow [DRSC26759], how do the results read?
firefly reporter light, replicate 1: 3.40e5; firefly reporter light, replicate 2: 3.33e5; Renilla control light, replicate 1: 6.99e5; Renilla control light, replicate 2: 6.16e5; Call: inactive

A run of entries taken from the entries so far:
blp [DRSC28887] | firefly reporter light, replicate 1 = 4.21e5; firefly reporter light, replicate 2 = 3.41e5; Renilla control light, replicate 1 = 9.32e5; Renilla control light, replicate 2 = 1.15e6; Call = inactive
Dcr-1 [DRSC15646] | firefly reporter light, replicate 1 = 74276; firefly reporter light, replicate 2 = 73935; Renilla control light, replicate 1 = 7.21e5; Renilla control light, replicate 2 = 8.59e5; Call = inactive
Dcr-1 [DRSC27421] | firefly reporter light, replicate 1 = 2.75e5; firefly reporter light, replicate 2 = 3.08e5; Renilla control light, replicate 1 = 6.48e5; Renilla control light, replicate 2 = 6.93e5; Call = inactive
